PubChem BioAssay AID652243 | Drosophila RNAi Screening Center – 2013
Purpose: 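Fly regulators of androgen-dependent reporter output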 (primary screen). Cell system: Drosophila S2R+ cells. Reagents: long dsRNA against Drosophila genes. Duration: 72 h (48 h, then 24 h hormone). Treatment: synthetic androgen R1881 at 10 nM for 24 h. Read-out: 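Firefly light from an androgen-responsive reporter and Renilla control light per well, raw and unnormalised, for each of two replicates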. Reading the numbers: firefly reporter light: higher = more light from androgen-responsive reporter; Renilla control light: higher = more constitutive control signal (cell number, transfection). Call rule: 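Hit when the log firefly-to-Renilla ratio dropped or increased by a fixed fold versus the mean of GFP or LacZ controls across duplicate plates; lowering cut given as 1.5 and as 3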. Meaning of the calls: active = hit: reporter lowered or raised; inactive = no hit.
The deposit covers about 24,000 reagents; this is a random part of those that have a named target and a result. Over the whole deposit, 246 (1%) are marked active. 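Plates not normalised; calls are printed but the firefly/Renilla ratio behind them is not deposited; fold cut for lowering reported inconsistently.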 Raw values vary from plate to plate and are shown uncorrected. Names joined by + are all predicted targets of the reagent. Not stated in the record: the amount of reagent.

predicted target | DRSC id | firefly reporter light, replicate 1 | firefly reporter light, replicate 2 | Renilla control light, replicate 1 | Renilla control light, replicate 2 | activity call
tai (GeneID 34242) | DRSC02673 | 2.12e5 | 2.66e5 | 1.30e6 | 1.34e6 | inactive
CG18294 + 825-Oak + CG32214 + 2 more | DRSC22210 | 5.89e5 | 6.43e5 | 9.16e5 | 9.68e5 | inactive
CG3008 (GeneID 33693) | DRSC00560 | 57385 | 53491 | 3.19e5 | 2.64e5 | inactive
CG3008 (GeneID 33693) | DRSC36837 | – | – | – | – | inactive
CG30016 (GeneID 246393) | DRSC05242 | 1.94e5 | 2.33e5 | 4.18e5 | 79531 | inactive
St4 (GeneID 36548) | DRSC07008 | 64133 | 62464 | 1.18e6 | 1.18e6 | inactive
bol (GeneID 39049) | DRSC08964 | 2.16e5 | 1.92e5 | 5.41e5 | 6.72e5 | inactive
bol (GeneID 39049) | DRSC10444 | 3.03e5 | 2.79e5 | 3.64e6 | 3.00e6 | inactive
bol (GeneID 39049) | DRSC11329 | 1.69e5 | 1.59e5 | 3.57e6 | 2.01e6 | inactive
bol (GeneID 39049) | DRSC26869 | 3.71e5 | 2.75e5 | 8.45e5 | 9.17e5 | inactive
CG33453 (GeneID 2768851) | DRSC05782 | 1.20e5 | 1.51e5 | 3.45e5 | 4.44e5 | inactive
Pgant3 (GeneID 35627) | DRSC05942 | 7.99e5 | 8.27e5 | 1.23e6 | 1.55e6 | inactive
Pgant3 (GeneID 35627) | DRSC29252 | 3.57e5 | 4.27e5 | 9.14e5 | 9.88e5 | inactive
CG32708 (GeneID 318161) | DRSC18411 | 4.25e5 | 6.49e5 | 2.46e6 | 2.69e6 | inactive
CG32708 (GeneID 318161) | DRSC28419 | 2.84e5 | 2.87e5 | 6.57e5 | 7.38e5 | inactive
Vm26Ab (GeneID 33827) | DRSC03473 | 6.10e5 | 5.53e5 | 2.85e6 | 2.50e6 | inactive
Vm26Ab (GeneID 33827) | DRSC25223 | 6.20e5 | 4.04e5 | 1.87e6 | 9.09e5 | inactive
CG12155 (GeneID 31682) | DRSC23294 | 2.29e5 | 2.20e5 | 1.51e6 | 1.28e6 | inactive
beat-IIIc (GeneID 35037) | DRSC02438 | 1.50e5 | 1.94e5 | 1.82e6 | 2.18e6 | inactive
beat-IIIc (GeneID 35037) | DRSC02949 | 1.55e5 | 1.75e5 | 1.92e6 | 2.19e6 | inactive
CG5068 (GeneID 39032) | DRSC10476 | 1.09e6 | 1.48e6 | 1.13e6 | 2.53e6 | inactive
CG34109 (GeneID 4379890) | DRSC02169 | 1.41e5 | 1.15e5 | 1.03e6 | 8.98e5 | inactive
CG34109 (GeneID 4379890) | DRSC02224 | 1.32e5 | 1.65e5 | 8.39e5 | 1.12e6 | inactive
CG34109 (GeneID 4379890) | DRSC02225 | 1.76e5 | 1.74e5 | 1.28e6 | 1.21e6 | inactive
CG34109 (GeneID 4379890) | DRSC26977 | 3.76e5 | 3.32e5 | 6.42e5 | 5.59e5 | inactive
CG34109 (GeneID 4379890) | DRSC30104 | 7.85e5 | 8.87e5 | 1.32e6 | 1.26e6 | inactive
Tnpo-SR (GeneID 33465) | DRSC00546 | 7.87e5 | 9.82e5 | 2.21e6 | 1.97e6 | inactive
128up (GeneID 36288) | DRSC05027 | 1.32e6 | 5.57e5 | 2.70e6 | 1.06e6 | inactive
128up (GeneID 36288) | DRSC24366 | 9.85e5 | 6.67e5 | 8.52e5 | 9.92e5 | inactive
CG32354 (GeneID 50302) | DRSC10763 | 1.01e6 | 8.63e5 | 1.37e6 | 1.70e6 | inactive
CG32354 (GeneID 50302) | DRSC10775 | 2.45e5 | 1.47e5 | 2.12e6 | 1.96e6 | inactive
CG32354 (GeneID 50302) | DRSC21919 | 1.06e6 | 8.76e5 | 1.84e6 | 1.19e6 | inactive
velo (GeneID 38748) | DRSC08841 | 20282 | 14642 | 1.18e5 | 1.19e5 | inactive
velo (GeneID 38748) | DRSC09698 | 1.05e6 | 1.25e6 | 1.40e6 | 1.96e6 | inactive
velo (GeneID 38748) | DRSC27497 | 3.04e5 | 3.03e5 | 2.72e5 | 4.72e5 | inactive
CheB42b (GeneID 2768717) | DRSC22878 | 5.05e5 | 3.36e5 | 1.30e6 | 1.82e6 | inactive
CG42534 (GeneID 43298) | DRSC16072 | 1.69e5 | 1.06e5 | 2.34e6 | 2.36e6 | inactive
CG42534 (GeneID 43298) | DRSC23131 | 8.49e5 | 1.01e6 | 4.78e5 | 4.39e5 | inactive
CG42534 (GeneID 43298) | DRSC26096 | 3.25e5 | 3.52e5 | 7.78e5 | 6.19e5 | inactive
CG10694 (GeneID 42855) | DRSC14263 | 1.71e5 | 1.78e5 | 2.33e6 | 2.11e6 | inactive
Snx17 (GeneID 34354) | DRSC02884 | 5.44e5 | 7.18e5 | 2.37e6 | 2.27e6 | inactive
Snx17 (GeneID 34354) | DRSC28893 | 4.15e5 | 4.83e5 | 1.05e6 | 9.87e5 | inactive
Ugt36F1 (GeneID 35137) | DRSC02601 | 1.39e5 | 1.40e5 | 1.27e6 | 1.34e6 | inactive
CG11596 (GeneID 31158) | DRSC18540 | 1.09e5 | 1.09e5 | 9.43e5 | 7.27e5 | inactive
CG11596 (GeneID 31158) | DRSC28643 | 3.82e5 | 4.72e5 | 1.41e6 | 1.39e6 | inactive
HDAC3 (GeneID 44446) | DRSC12352 | 40978 | 54335 | 3.20e5 | 3.47e5 | inactive
INPP5E (GeneID 39404) | DRSC09723 | 2.20e5 | 2.39e5 | 1.84e6 | 1.63e6 | inactive
INPP5E (GeneID 39404) | DRSC36899 | – | – | – | – | inactive
INPP5E (GeneID 39404) | DRSC36900 | – | – | – | – | inactive
Obp83cd (GeneID 40746) | DRSC12267 | 71286 | 48842 | 1.14e6 | 8.59e5 | inactive
CG10139 (GeneID 36626) | DRSC05972 | 1.15e6 | 1.10e6 | 8.28e5 | 8.15e5 | inactive
ATPsynbetaL (GeneID 39761) | DRSC10503 | 1.75e5 | 2.05e5 | 1.80e6 | 1.69e6 | inactive
ATPsynbetaL (GeneID 39761) | DRSC24354 | 5.45e5 | 5.65e5 | 6.02e5 | 7.65e5 | inactive
mthl15 (GeneID 318914) | DRSC01120 | 1.98e5 | 2.17e5 | 4.62e5 | 4.77e5 | inactive
ProRS-m (GeneID 38331) | DRSC08261 | 1.30e5 | 83271 | 1.24e6 | 8.92e5 | inactive
ProRS-m (GeneID 38331) | DRSC30008 | 3.81e5 | 3.42e5 | 1.11e6 | 1.22e6 | inactive
Cyp313b1 (GeneID 41019) | DRSC16629 | 1.01e5 | 1.30e5 | 2.25e6 | 2.14e6 | inactive
Mst87F (GeneID 41693) | DRSC16747 | 1.47e5 | 1.62e5 | 2.01e6 | 2.51e6 | inactive
Mst87F (GeneID 41693) | DRSC25350 | 7.00e5 | 4.96e5 | 8.18e5 | 5.40e5 | inactive
Mtr3 (GeneID 40173) | DRSC10953 | 1.19e5 | 1.49e5 | 1.68e6 | 1.93e6 | inactive
Mtr3 (GeneID 40173) | DRSC26956 | 4.23e5 | 2.72e5 | 9.29e5 | 5.08e5 | inactive
CG1910 (GeneID 43741) | DRSC15400 | 66799 | 81877 | 5.43e5 | 5.13e5 | inactive
CG1910 (GeneID 43741) | DRSC39143 | 6.46e5 | 7.14e5 | 1.27e6 | 1.15e6 | inactive
TwdlD (GeneID 43210) | DRSC25038 | 9.22e5 | 1.03e6 | 1.06e6 | 1.11e6 | inactive
CG9570 (GeneID 33009) | DRSC20687 | 1.60e5 | 1.64e5 | 4.30e5 | 2.84e5 | inactive
CG18268 + CG3014 | DRSC15319 | 53566 | 52334 | 1.31e6 | 1.20e6 | inactive
Naa40 (GeneID 43500) | DRSC16265 | 1.63e5 | 2.00e5 | 2.01e6 | 2.69e6 | inactive
CG10803 (GeneID 31320) | DRSC17763 | 57167 | 68150 | 4.91e5 | 5.64e5 | inactive
CG10803 (GeneID 31320) | DRSC26282 | 3.53e5 | 3.62e5 | 5.56e5 | 5.19e5 | inactive
Lim3 (GeneID 35184) | DRSC23034 | 9.41e5 | 1.27e6 | 2.00e6 | 1.56e6 | inactive
Lim3 (GeneID 35184) | DRSC28555 | 3.46e5 | 5.45e5 | 9.60e5 | 1.27e6 | inactive
CG16995 (GeneID 33413) | DRSC00480 | 1.22e5 | 1.13e5 | 6.63e5 | 6.73e5 | inactive
Cpn (GeneID 41474) | DRSC16613 | 7252 | 14617 | 2.60e5 | 2.52e5 | inactive
Cpn (GeneID 41474) | DRSC23835 | 4.25e5 | 3.29e5 | 3.75e5 | 4.87e5 | inactive

Entries listed so far whose target name begins with M or m (5):
predicted target | DRSC id | firefly reporter light, replicate 1 | firefly reporter light, replicate 2 | Renilla control light, replicate 1 | Renilla control light, replicate 2 | activity call
mthl15 (GeneID 318914) | DRSC01120 | 1.98e5 | 2.17e5 | 4.62e5 | 4.77e5 | inactive
Mst87F (GeneID 41693) | DRSC16747 | 1.47e5 | 1.62e5 | 2.01e6 | 2.51e6 | inactive
Mst87F (GeneID 41693) | DRSC25350 | 7.00e5 | 4.96e5 | 8.18e5 | 5.40e5 | inactive
Mtr3 (GeneID 40173) | DRSC10953 | 1.19e5 | 1.49e5 | 1.68e6 | 1.93e6 | inactive
Mtr3 (GeneID 40173) | DRSC26956 | 4.23e5 | 2.72e5 | 9.29e5 | 5.08e5 | inactive
